Test results: the supplement of paper PMC8426693
The list shows a part of the results.

Key:
Experiment in all cases: NMR binding call after quantification (hit when 2 of 3 NMR criteria are met) (binary (1 = binding, 0 = not binding)); higher = binding
Details in all cases: RNA concentration 10 µM; fragment concentration 200 µM; 293 K
SARS-CoV-2 3'-UTR RNA = tested on: SARS-CoV-2 3'-UTR RNA
SARS-CoV-2 3_SL1 RNA = tested on: SARS-CoV-2 3_SL1 RNA
SARS-CoV-2 3_SL1+2 RNA = tested on: SARS-CoV-2 3_SL1+2 RNA
SARS-CoV-2 3_SL2 RNA = tested on: SARS-CoV-2 3_SL2 RNA
SARS-CoV-2 3_SL3base RNA = tested on: SARS-CoV-2 3_SL3base RNA
SARS-CoV-2 3_s2m RNA = tested on: SARS-CoV-2 3_s2m RNA
SARS-CoV-2 5'-UTR RNA = tested on: SARS-CoV-2 5'-UTR RNA
SARS-CoV-2 5_SL1 RNA = tested on: SARS-CoV-2 5_SL1 RNA
SARS-CoV-2 5_SL1234 RNA = tested on: SARS-CoV-2 5_SL1234 RNA
SARS-CoV-2 5_SL5a RNA = tested on: SARS-CoV-2 5_SL5a RNA
SARS-CoV-2 5_SL5b+c RNA = tested on: SARS-CoV-2 5_SL5b+c RNA
SARS-CoV-2 5_SL5stem RNA = tested on: SARS-CoV-2 5_SL5stem RNA
SARS-CoV-2 5_SL6 RNA = tested on: SARS-CoV-2 5_SL6 RNA
SARS-CoV-2 5_SL5 RNA = tested on: SARS-CoV-2 5_SL5 RNA
SARS-CoV-2 5_SL2+3 RNA = tested on: SARS-CoV-2 5_SL2+3 RNA
SARS-CoV-2 5_SL4 RNA = tested on: SARS-CoV-2 5_SL4 RNA

| Structure (SMILES) | NMR binding call (SARS-CoV-2 3'-UTR RNA) | NMR binding call (SARS-CoV-2 3_SL1 RNA) | NMR binding call (SARS-CoV-2 3_SL1+2 RNA) | NMR binding call (SARS-CoV-2 3_SL2 RNA) | NMR binding call (SARS-CoV-2 3_SL3base RNA) | NMR binding call (SARS-CoV-2 3_s2m RNA) | NMR binding call (SARS-CoV-2 5'-UTR RNA) | NMR binding call (SARS-CoV-2 5_SL1 RNA) | NMR binding call (SARS-CoV-2 5_SL1234 RNA) | NMR binding call (SARS-CoV-2 5_SL5a RNA) | NMR binding call (SARS-CoV-2 5_SL5b+c RNA) | NMR binding call (SARS-CoV-2 5_SL5stem RNA) | NMR binding call (SARS-CoV-2 5_SL6 RNA) | NMR binding call (SARS-CoV-2 5_SL5 RNA) | NMR binding call (SARS-CoV-2 5_SL2+3 RNA) | NMR binding call (SARS-CoV-2 5_SL4 RNA) |
| --- | --- | --- | --- | --- | --- | --- | --- | --- | --- | --- | --- | --- | --- | --- | --- | --- |
| OCC1CN(Cc2ccccc2)CCO1 (configuration not stated) | 0 | 0 | 0 | 0 | 0 | 0 | 0 | 0 | 0 | 0 | 0 | 0 | 0 | – | – | – |
| COC(C)c1nc(-c2cnoc2C)cs1 (configuration not stated) | 0 | 0 | 0 | 0 | 0 | 0 | 0 | 0 | 0 | 0 | 0 | 0 | 0 | 0 | – | – |
| N#Cc1ccc(NC(=O)c2cccs2)cc1 | 1 | 0 | 0 | 0 | 1 | 0 | 1 | 0 | – | – | 0 | – | – | 1 | 0 | – |
| CC(C)(C)C(=O)NCCc1nc2ccccc2[nH]1 | 0 | 0 | 0 | 0 | 0 | 0 | 0 | 0 | 0 | 0 | 0 | 0 | – | 0 | – | 0 |
| OCCN1CCOCC1 | 0 | 0 | 0 | 0 | 0 | 0 | 0 | 0 | 0 | 0 | 0 | 0 | 0 | – | – | 0 |
| CCC(NC)c1ccncc1 (configuration not stated) | 0 | 0 | 0 | 0 | 0 | 0 | 0 | 0 | – | 0 | 0 | 0 | 0 | 0 | 0 | 0 |
| COCC(=O)Nc1nc(-c2ccccc2)cs1 | 0 | 0 | 0 | 0 | 0 | 0 | 0 | 0 | 0 | 0 | 0 | 0 | 0 | 0 | 0 | – |
| COc1ccc(NCc2ccccc2O)cc1 | 0 | 0 | 0 | 0 | 0 | 0 | 0 | 0 | 0 | 0 | 0 | 0 | – | 0 | – | 0 |
| O=C(NCCN1CCCC1=O)Nc1ccccc1 | 0 | 0 | 0 | 0 | 0 | 0 | 0 | 0 | – | 0 | 0 | 0 | 0 | 0 | 0 | 0 |
| O=C(Nc1ccon1)c1cccc(Cl)c1 | 1 | 0 | 0 | 0 | 1 | 0 | 1 | 0 | – | – | 0 | 1 | – | 1 | 0 | – |
| Cn1cc(Oc2ncncc2Cl)cn1 | 0 | 0 | 0 | 0 | 0 | 0 | 0 | 0 | 0 | 0 | 0 | 0 | 0 | 0 | – | 0 |
| c1ccc(SCCN2CCOCC2)cc1 | 0 | 0 | 0 | 0 | 0 | 0 | 0 | 0 | 0 | 0 | – | 0 | 0 | 0 | – | 0 |
| COC(=O)Nc1ccc(Cc2ccncc2)cc1 | 0 | 0 | 0 | 0 | 0 | 0 | 0 | 0 | 0 | – | 0 | – | – | – | – | 0 |
| CC(C)C(=O)Nc1ccc(N2CCCCC2)cc1 | 0 | 0 | 0 | 0 | 0 | 0 | 0 | 0 | 0 | 0 | 0 | 0 | 0 | 0 | – | 0 |
| NC(=O)c1ccc(NC(=O)c2cnccn2)cc1 | 0 | 0 | 0 | 0 | 0 | 0 | 0 | 0 | – | – | 0 | – | – | – | 0 | – |
| N#Cc1ccc(Cn2cnc3ccccc32)cc1 | 0 | 0 | 0 | 0 | 0 | 0 | 0 | 0 | – | – | 0 | – | – | 0 | 0 | 0 |
| CN1CCN(C(=O)CO)CC1 | 0 | 0 | 0 | 0 | 0 | 0 | 0 | 0 | – | 0 | 0 | 0 | 0 | 0 | 0 | 0 |
| CC(Oc1ccc(-c2ccccc2)cc1)C(=O)O (configuration not stated) | 0 | 0 | 0 | 0 | 0 | 0 | 0 | 0 | – | – | 0 | – | – | – | 0 | – |
| Cl.Cl.O=C(c1ccncc1)N1CCNCC1 | 0 | 0 | 0 | 0 | 0 | 0 | 0 | 0 | 0 | 0 | 0 | 0 | 0 | – | 0 | 0 |
| Cc1cc(C(=O)Nc2ccc3[nH]ccc3c2)no1 | 1 | 0 | 0 | 0 | 1 | 0 | 0 | 0 | 0 | 0 | 0 | 0 | 0 | 0 | 0 | – |

| Structure (SMILES) | NMR binding call (SARS-CoV-2 3'-UTR RNA) | NMR binding call (SARS-CoV-2 3_SL1 RNA) | NMR binding call (SARS-CoV-2 3_SL1+2 RNA) | NMR binding call (SARS-CoV-2 3_SL2 RNA) | NMR binding call (SARS-CoV-2 3_SL3base RNA) | NMR binding call (SARS-CoV-2 3_s2m RNA) | NMR binding call (SARS-CoV-2 5'-UTR RNA) | NMR binding call (SARS-CoV-2 5_SL1 RNA) | NMR binding call (SARS-CoV-2 5_SL1234 RNA) | NMR binding call (SARS-CoV-2 5_SL5a RNA) | NMR binding call (SARS-CoV-2 5_SL5b+c RNA) | NMR binding call (SARS-CoV-2 5_SL5stem RNA) | NMR binding call (SARS-CoV-2 5_SL6 RNA) | NMR binding call (SARS-CoV-2 5_SL5 RNA) | NMR binding call (SARS-CoV-2 5_SL2+3 RNA) | NMR binding call (SARS-CoV-2 5_SL4 RNA) |
| --- | --- | --- | --- | --- | --- | --- | --- | --- | --- | --- | --- | --- | --- | --- | --- | --- |
| Cc1c(Cl)cccc1NC(=O)CN.Cl | 0 | 0 | 0 | 0 | 0 | 0 | 1 | 0 | 0 | 0 | 0 | 0 | 0 | 0 | – | 0 |
| CCNc1ccc(C)nn1 | 0 | 0 | 0 | 0 | 0 | 0 | 0 | 0 | 0 | 0 | 0 | – | 0 | 0 | – | 0 |
| COCC1CN(c2ccccn2)CCO1 (configuration not stated) | 0 | 0 | 0 | 0 | 0 | 0 | 0 | 0 | 0 | 0 | 0 | 0 | 0 | 0 | – | 0 |
| CC(N)c1nc(Cc2ccccc2)no1.Cl (configuration not stated) | 0 | 0 | 0 | 0 | 0 | 0 | 0 | 0 | 0 | 0 | 0 | 0 | 0 | 0 | – | 0 |
| O=C(CCCc1ccccc1)N1CCOCC1 | 0 | 0 | 0 | 0 | 0 | 0 | 0 | 0 | – | 0 | 0 | 0 | 0 | 0 | 0 | 0 |
| CC(=O)Nc1ccc2[nH]c(=O)[nH]c2c1 | 1 | 0 | 0 | 0 | 0 | 0 | 0 | 0 | 0 | 0 | 0 | 0 | 0 | – | 0 | 0 |
| CC(CO)N(C)c1ncc(Cl)cn1 (configuration not stated) | 0 | 0 | 0 | 0 | 0 | 0 | 0 | 0 | – | – | 0 | – | – | – | 0 | – |
| Cc1cc(CN(C)C(=O)NC2CC2)no1 | 0 | 0 | 0 | 0 | 0 | 0 | 0 | 0 | 0 | 0 | 0 | 0 | 0 | – | 0 | 0 |
| Cc1ccc(N2CCN(C(N)=O)CC2)cc1 | 0 | 0 | 0 | 0 | 0 | 0 | 0 | 0 | 0 | 0 | 0 | – | 0 | 0 | 0 | – |
| CC(C)Nc1cccnc1 | 0 | 0 | 0 | 0 | 0 | 0 | 0 | 0 | 0 | 0 | 0 | 0 | 0 | 0 | – | 0 |
| NCc1ccc(-c2cccs2)cc1 | 0 | 0 | 0 | 0 | 0 | 0 | 0 | 0 | 0 | 0 | 0 | 0 | 0 | 0 | 0 | – |
| CC(=O)NCc1cn[nH]c1 | 0 | 0 | 0 | 0 | 0 | 0 | 0 | 0 | 0 | 0 | 0 | 0 | 0 | – | 0 | 0 |
| CN(C)Cc1ccc(C#N)cc1 | 0 | 0 | 0 | 0 | 0 | 0 | 0 | 0 | 0 | 0 | 0 | 0 | 0 | 0 | – | 0 |
| CC(N)C(=O)Nc1cc(C(F)(F)F)n[nH]1.Cl (configuration not stated) | 0 | 0 | 0 | 0 | 0 | 0 | 0 | 0 | 0 | 0 | 0 | 0 | 0 | 0 | – | 0 |
| CC(=O)Nc1ccc(CN2CCOCC2)cc1 | 0 | 0 | 0 | 0 | 0 | 0 | 0 | 0 | 0 | 0 | 0 | 0 | 0 | 0 | – | 0 |
| Cc1n[nH]c(C)c1S(=O)(=O)N(C)C | 0 | 0 | 0 | 0 | 0 | 0 | 0 | 0 | 0 | 0 | 0 | 0 | 0 | 0 | – | 0 |
| Cn1nnc(NC(=O)c2ccc(Cl)cc2)n1 | 0 | 0 | 0 | 0 | 0 | 0 | 0 | 0 | – | 0 | 0 | 0 | 0 | 0 | 0 | – |
| CC(=O)Nc1ccc(NC(=O)C2CC2(C)C)cc1 (configuration not stated) | 0 | 0 | 0 | 0 | 0 | 0 | 0 | 0 | 0 | 0 | 0 | 0 | 0 | – | 0 | 0 |
| CCN(CC)c1cccc(O)c1 | 0 | 0 | 0 | – | – | 0 | 0 | 0 | – | 0 | 0 | 0 | 0 | 0 | – | 0 |
| c1csc(CNCc2ccncc2)c1 | 0 | 0 | 0 | 0 | 0 | 0 | 0 | 0 | – | 0 | 0 | 0 | 0 | 0 | – | 0 |

Record cards, from the list above. Order of values: NMR binding call (SARS-CoV-2 3'-UTR RNA)	NMR binding call (SARS-CoV-2 3_SL1 RNA)	NMR binding call (SARS-CoV-2 3_SL1+2 RNA)	NMR binding call (SARS-CoV-2 3_SL2 RNA)	NMR binding call (SARS-CoV-2 3_SL3base RNA)	NMR binding call (SARS-CoV-2 3_s2m RNA)	NMR binding call (SARS-CoV-2 5'-UTR RNA)	NMR binding call (SARS-CoV-2 5_SL1 RNA)	NMR binding call (SARS-CoV-2 5_SL1234 RNA)	NMR binding call (SARS-CoV-2 5_SL5a RNA)	NMR binding call (SARS-CoV-2 5_SL5b+c RNA)	NMR binding call (SARS-CoV-2 5_SL5stem RNA)	NMR binding call (SARS-CoV-2 5_SL6 RNA)	NMR binding call (SARS-CoV-2 5_SL5 RNA)	NMR binding call (SARS-CoV-2 5_SL2+3 RNA)	NMR binding call (SARS-CoV-2 5_SL4 RNA)
`CC(=O)Nc1ccc(NC(=O)C2CC2(C)C)cc1` (configuration not stated) as listed: 0	0	0	0	0	0	0	0	0	0	0	0	0	–	0	0
`CC(CO)N(C)c1ncc(Cl)cn1` (configuration not stated) as listed: 0	0	0	0	0	0	0	0	–	–	0	–	–	–	0	–
